Laboratory results published in PubChem BioAssay AID540276 (National Center for Advancing Translational Sciences (NCATS), 2011).
The whole screen tested about 300,000 compounds, of which about 5,400 (1.8%) were called active. This list was built around the results that the source calls inconclusive (neither active nor inactive); the mix of calls is not that of the screen. The call rests on the fitted dose curve; tested in HEK293 cells. Potencies beside an inconclusive call are fits to weak or partial responses and may not hold up.

Assay: qHTS for inhibitors of binding or entry into cells for Marburg Virus
Details: Marburg virus pseudotyped entry inhibition, cell reporter; activity change, negative = inhibition: at 37.8 µM (top of the series) unless noted
On the % scale 0 is the no-effect control and ±100 the full control effect; potency means the concentration at half of the fitted maximal effect.

| Structure (SMILES) | Potency | activity change, negative = inhibition |
| --- | --- | --- |
| CCC(c1nnnn1Cc1ccco1)N(CCc1ccccc1)Cc1cc2ccc(OC)cc2[nH]c1=O (stereo not given) | inconclusive: 22.4 µM [inhibitor, single point] |  |
| O=C(N/N=C/c1cccnc1)c1cc(-c2ccc(Br)cc2)nc2ccccc12 | inconclusive: 20 µM [inhibitor, partial curve, poor fit] |  |
| COc1ccc(OCCN2C(=O)c3ccccc3C2=O)cc1 |  | inactive: 1.93% [at 46.1 µM] |
| CCOC(=O)c1cn2nc(Oc3ccc(C(=O)OC)cc3)ccc2n1 |  | inactive: -1.02% [at 14.2 µM] |
| O=S(=O)(NCc1ccc(F)cc1)c1cccc(S(=O)(=O)N2CCOCC2)c1 |  | inactive: -4% |
| Cc1ccc(S(=O)(=O)Nc2cc(S(=O)(=O)N3CCCCC3)ccc2N2CCOCC2)cc1 | inconclusive: 5.62 µM [inhibitor, single point] |  |
| CCOC(=O)c1ccc(S(=O)(=O)N2CCN(C3CC(=O)N(c4ccccc4C(F)(F)F)C3=O)CC2)cc1 (stereo not given) |  | inactive: 13.3% |
| CC1CCN(C(=O)Cn2ncc3c4ccccc4n(Cc4ccc(Cl)cc4)c3c2=O)CC1 |  | inactive: -17.8% [at 46.1 µM] |
| Cc1cc(NC(=O)CCC(=O)N(Cc2ccco2)C(C(=O)NC2CCCC2)c2ccccc2)no1 (stereo not given) | inconclusive: 1.12 µM [inhibitor, full curve, poor fit] |  |
| O=C(NNC(=O)c1cccc2ccccc12)c1ccc2c(c1)OCO2 |  | inactive: 16.2% |
| CC1CCN(C(=O)COC(=O)c2ccc3c(c2)OCCO3)CC1 |  | inactive: 1.4% |
| CC(C)C(=O)N=C1SC2CS(=O)(=O)CC2N1Cc1ccccc1 (stereo not given) |  | inactive: 6.27% |
| CSc1nn(Cc2ccc(Br)cc2)c(N(C(C)=O)C(C)=O)c1S(=O)(=O)c1ccccc1 | inconclusive: 2.82 µM [inhibitor, full curve, poor fit] |  |
| O=C(NCCCCO)C(F)(F)C(F)(F)C(F)(F)C(=O)NCCCCO | inconclusive: 12.6 µM [inhibitor, single point] |  |
| Nc1cc(N2CCCC2)c(Cl)cc1[N+](=O)[O-] | inconclusive: 3.55 µM [inhibitor, single point] |  |
| CC(=O)Nc1ccc(NCc2ccc(C)s2)cc1 |  | inactive: 1.79% |
| COc1ccc(S(=O)(=O)Cc2ccc(C(=O)NCCc3cc(OC)ccc3OC)o2)cc1 | inconclusive: 15.8 µM [inhibitor, single point] |  |
| COc1ccc(-c2nc(-c3ccccn3)nc(N3CCN(C)CC3)c2C#N)cc1 | inconclusive: 6.31 µM [inhibitor, single point] |  |
| COc1ccc(C(=O)N/N=C/c2c(C)nn(-c3ccccc3)c2OC)cc1 | inconclusive: 7.08 µM [inhibitor, full curve] |  |
| CO/N=C/c1cccn1-c1nccc(OC)c1C#N |  | inactive: 6% [at 46.1 µM] |
| O=C(Nc1nc2ccccc2[nH]1)c1cc2ccccc2o1 | inconclusive: 5.01 µM [inhibitor, full curve, poor fit] |  |
| Cc1ccc(S(=O)(=O)C2(C(=O)Nc3ccc(F)cc3)CC2)cc1 | inconclusive: 2.51 µM [activator, partial curve, poor fit] |  |
| C=CC[C@@]1(c2ccc(Br)cc2OC)Oc2ccccc2-c2nccnc21 | inconclusive: 3.35 µM [inhibitor, single point] |  |

A second format for 2 compounds above.
Nc1cc(N2CCCC2)c(Cl)cc1[N+](=O)[O-]
  Potency: inconclusive: 3.55 µM [inhibitor, single point]
C=CC[C@@]1(c2ccc(Br)cc2OC)Oc2ccccc2-c2nccnc21
  Potency: inconclusive: 3.35 µM [inhibitor, single point]

Next compounds:

| Structure (SMILES) | Potency | activity change, negative = inhibition |
| --- | --- | --- |
| O=C(CN1C(=O)c2ccccc2S1(=O)=O)c1ccc(F)c(F)c1 | active: 10 µM |  |
| COC(=O)C1=C(NC(=O)c2ccc(Br)cc2)CCS1 | inconclusive: 10 µM [inhibitor, partial curve, poor fit] |  |
| Cc1ccccc1Cn1cnc2c(cnn2C(C)(C)C)c1=O |  | inactive: -4.9% |
| COc1ccc(C(O)C(CN2CCOCC2)c2ccccc2)cc1 (stereo not given) | inconclusive: 20.6 µM [inhibitor, partial curve, poor fit] |  |
| CS(=O)(=O)c1sc2nc(-c3ccccc3)cc(-c3ccccc3)c2c1N | inconclusive: 22.4 µM [inhibitor, single point] |  |
| COc1ccccc1-c1nnc2n1N=C(C(C)(C)C)CS2 |  | inactive: -19.2% |
| Cc1cc2ncn(/N=C/c3ccc([N+](=O)[O-])s3)c2cc1C | inconclusive: 7.08 µM [inhibitor, full curve, poor fit] |  |
| CCC(C(=O)NC1CCCCCC1)n1nc(C)c2c(C)n(-c3ccccc3)nc2c1=O (stereo not given) | inconclusive: 5.62 µM [activator, single point] |  |
| CC(=O)Nc1cccc(NC(=O)Nc2ccc(F)cc2F)c1 |  | inactive: 9.36% [at 46.1 µM] |
| CCOc1ccc(C2=C(C=Nc3c(C)n(C)n(-c4ccccc4)c3=O)C(c3ccc(F)cc3)c3ccccc3O2)cc1 (stereo not given) |  | inactive: -13.3% |
| Cc1cc(C)n(-c2nc(NCCC(C)C)c3c4c(sc3n2)COC(C)(C)C4)n1 | inconclusive: 0.355 µM [inhibitor, full curve, poor fit] |  |
| Cc1ccc(-n2c(C)cc(/C=N/NC(=O)c3ccncc3)c2C)cc1C |  | inactive: -28.1% [at 46.1 µM] |
| C=CCN=C1S/C(=C\c2ccc(N(C)C)cc2)C(=O)N1CC=C | inconclusive: 3.16 µM [activator, partial curve, poor fit] |  |
| O=C(CCSc1ccc(Cl)cc1)N1CCN(c2ccc(O)cc2)CC1 | inconclusive: 5.62 µM [inhibitor, full curve, poor fit] |  |
| Clc1ccc(OCCSc2ncccn2)c(Br)c1 | inconclusive: 10 µM [inhibitor, partial curve, poor fit] |  |
| CC(C)C(c1nnnn1Cc1ccco1)N1CCC(C(N)=O)CC1 (stereo not given) | inconclusive: 1.58 µM [activator, partial curve, poor fit] |  |
| COc1ccc(-n2c(COc3ccccc3)nnc2SCc2ccc(C#N)cc2)cc1 | inconclusive: 16.4 µM [inhibitor, single point] |  |
| COC(=O)c1nn(-c2ccccc2)c2nnc(Cc3ccc(C)cc3)c(=O)n12 | inconclusive: 7.08 µM [inhibitor, partial curve, poor fit] |  |
| CCN(CC(=O)N1CCCC1)S(=O)(=O)c1cc(C)ccc1OC |  | inactive: -14.1% |
| COc1cccc(/C=N/NC(=O)CSCC(=O)Nc2ccccc2)c1O | active: 20.6 µM |  |
| CCn1cc(C2=NOC(C(=O)Nc3ccc4c(c3)OCO4)C2)c(C)n1 (stereo not given) |  | inactive: 4.32% |
| CCCc1nnc(NC(=O)CC(=O)OCC)s1 | inconclusive: 0.708 µM [activator, partial curve, poor fit] |  |
